Measured values taken from publication PMC6600216.
No constants are given. Whether binding was seen depends on the method and setting. Binding seen in cells or lysates may run through a third protein. Some entries that bind do so weakly or less than the wild type.

Target: T1, IRTKS, endogenous mouse (mouse (endogenous in MEFs, liver and kidney)) (UniProt Q9DBJ3)
T1 sequence: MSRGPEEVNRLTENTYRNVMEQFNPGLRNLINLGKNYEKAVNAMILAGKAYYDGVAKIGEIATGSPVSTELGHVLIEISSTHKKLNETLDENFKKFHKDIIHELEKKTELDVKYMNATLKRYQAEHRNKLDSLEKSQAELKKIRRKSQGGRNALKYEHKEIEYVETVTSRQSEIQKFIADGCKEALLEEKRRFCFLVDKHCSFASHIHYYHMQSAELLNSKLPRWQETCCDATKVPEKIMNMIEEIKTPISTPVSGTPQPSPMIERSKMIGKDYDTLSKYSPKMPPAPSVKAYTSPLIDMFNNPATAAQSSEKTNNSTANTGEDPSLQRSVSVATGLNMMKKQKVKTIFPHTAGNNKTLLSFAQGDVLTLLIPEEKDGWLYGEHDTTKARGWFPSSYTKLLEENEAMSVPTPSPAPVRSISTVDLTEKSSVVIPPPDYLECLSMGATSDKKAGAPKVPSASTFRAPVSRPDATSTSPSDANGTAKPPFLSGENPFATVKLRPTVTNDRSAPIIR
Assay: co-IP; lysates (1 mg total protein) of MEFs, liver and kidney of wild-type and IRTKS-knockout mice; anti-IRTKS or anti-SHIP2 antibody (1 ug) at 4 °C overnight, protein-G beads 4 h; IgG as negative control; immunoblot

- binding: binds
B1: SHIP2, endogenous mouse (enzyme, UniProt Q6P549 1-1257)
chain: MASVCGTPSPGGALGSPAPAWYHRDLSRAAAEELLARAGRDGSFLVRDSESVAGAFALCVLYQKHVHTYRILPDGEDFLAVQTSQGVPVRRFQTLGELIGLYAQPNQGLVCALLLPVEGEREPDPPDDRDASDVEDEKPPLPPRSGSTSISAPVGPSSPLPTPETPTTPAAESTPNGLSTVSHEYLKGSYGLDLEAVRGGASNLPHLTRTLVTSCRRLHSEVDKVLSGLEILSKVFDQQSSPMVTRLLQQQSLPQTGEQELESLVLKLSVLKDFLSGIQKKALKALQDMSSTAPPAPLQPSIRKAKTIPVQAFEVKLDVTLGDLTKIGKSQKFTLSVDVEGGRLVLLRRQRDSQEDWTTFTHDRIRQLIKSQRVQNKLGVVFEKEKDRTQRKDFIFVSARKREAFCQLLQLMKNRHSKQDEPDMISVFIGTWNMGSVPPPKNVTSWFTSKGLGKALDEVTVTIPHDIYVFGTQENSVGDREWLDLLRGGLKELTDLDYRPIAMQSLWNIKVAVLVKPEHENRISHVSTSSVKTGIANTLGNKGAVGVSFMFNGTSFGFVNCHLTSGNEKTTRRNQNYLDILRLLSLGDRQLSAFDISLRFTHLFWFGDLNYRLDMDIQEILNYISRREFEPLLRVDQLNLEREKHKVFLRFSEEEISFPPTYRYERGSRDTYAWHKQKPTGVRTNVPSWCDRILWKSYPETHIICNSYGCTDDIVTSDHSPVFGTFEVGVTSQFISKKGLSKTSDQAYIEFESIEAIVKTASRTKFFIEFYSTCLEEYKKSFENDAQSSDNINFLKVQWSSRQLPTLKPILADIEYLQDQHLLLTVKSMDGYESYGECVVALKSMIGSTAQQFLTFLSHRGEETGNIRGSMKVRVPTERLGTRERLYEWISIDKDDTGAKSKVPSVSRGSQEHRSGSRKPASTETSCPLSKLFEEPEKPPPTGRPPAPPRAVPREEPLNPRLKSEGTSEQEGVAAPPPKNSFNNPAYYVLEGVPHQLLPLEPPSLARAPLPPATKNKVAITVPAPQLGRHRTPRVGEGSSSDEDSGGTLPPPDFPPPPLPDSAIFLPPNLDPLSMPVVRGRSGGEARGPPPPKAHPRPPLPPGTSPASTFLGEVASGDDRSCSVLQMAKTLSEVDYAPGPGRSALLPNPLELQPPRGPSDYGRPLSFPPPRIRESIQEDLAEEAPCPQGGRASGLGEAGMGAWLRAIGLERYEEGLVHNGWDDLEFLSDITEEDLEEAGVQDPAHKRLLLDTLQLSK
